Data from PMC9547204.
Results are given in words; binding and its absence hold for the method and conditions named. Some binding calls cover weakened binding; strength is not graded here. Where a sequence is shown, tags or fusion partners need not be part of it.

Sequences of proteins named here, by UniProt entry; tags and fusion partners are left off. A change or cut given only in a name is not applied to a line headed by its entry.
UniProt P63044: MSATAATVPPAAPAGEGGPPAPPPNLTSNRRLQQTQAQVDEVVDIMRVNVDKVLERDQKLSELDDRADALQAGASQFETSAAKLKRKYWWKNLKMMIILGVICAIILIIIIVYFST
UniProt P70452: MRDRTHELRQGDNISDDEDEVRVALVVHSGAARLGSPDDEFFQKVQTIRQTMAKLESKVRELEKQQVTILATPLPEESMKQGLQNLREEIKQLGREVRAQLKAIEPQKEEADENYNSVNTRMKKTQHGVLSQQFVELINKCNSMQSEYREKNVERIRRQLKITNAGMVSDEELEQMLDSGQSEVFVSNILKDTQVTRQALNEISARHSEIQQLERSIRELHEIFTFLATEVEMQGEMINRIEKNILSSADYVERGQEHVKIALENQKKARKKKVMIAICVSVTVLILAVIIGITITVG

How the values were obtained:
[1] = molecular target: VAMP2 (full-length v-SNARE) on liposomes (UniProt P63044); assay: liposome co-flotation; MBP-tagged peptide (5 μM) incubated 1 h at 4 °C with SNARE liposomes (5 μM SNAREs, 100% phosphatidylcholine) or protein-free liposomes; Nycodenz gradient flotation; floated liposomes analysed by SDS-PAGE, Coomassie blue; both purified
[2] = molecular target: GLUT4 exocytic t-SNAREs (syntaxin-4 and His6-tagged SNAP-23) on liposomes (UniProt P70452); assay: as above

- binding [2]: binds
B1: MBP-tagged SLP (aa. 327–351 of Munc18c) (domain or fragment)
chain: LTQLMKKMPHFRKQISKQVVHLNLA
- binding [1]: no binding (tested: 5 μM SNAREs and 5 μM MBP-tagged peptide)
